Data reported in publication PMC6181919.
No constants are given. Whether binding was seen depends on the method and setting.

By UniProt entry, the sequences of proteins in these tests, tags left out. Residues count along the entry.
UniProt P02452, residues 1219-1464: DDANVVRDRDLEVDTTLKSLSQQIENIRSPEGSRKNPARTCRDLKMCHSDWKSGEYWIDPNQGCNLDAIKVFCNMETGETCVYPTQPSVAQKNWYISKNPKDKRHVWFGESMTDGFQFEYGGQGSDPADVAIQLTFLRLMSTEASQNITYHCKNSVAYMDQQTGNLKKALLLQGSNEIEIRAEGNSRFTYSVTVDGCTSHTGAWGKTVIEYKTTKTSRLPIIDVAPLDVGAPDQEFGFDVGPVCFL

Target: wild-type, HA-tagged C-Proα1(I) (C-propeptide domain of human Colα1(I)) (human) (UniProt P02452)
Assay: condition: only reducing SDS-PAGE (100 mM dithiothreitol); reducing SDS-PAGE immunoblot; conditioned media of transfected HEK293 cells, treated with 100 mM dithiothreitol, boiled in SDS, 12% gel

binding: no binding
Substance: wild-type, HA-tagged C-Proα1(I) (C-propeptide domain of human Colα1(I)) (from UniProt P02452 1219-1464) (domain or fragment)
